This is one part of the list.
Compound: CC1Cc2ccccc2N1C(=O)C1CCCN(C1)C(=O)CCl (mixture of isomers) [TRIM25 ligand 11 (diastereomer mixture)]
Assay: probe-labelled cysteine peptide fold change vs DMSO (competition) (log2 fold change); higher = less target engagement (more negative = stronger competition)
Settings: THP-1, incubation time: 4 h
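Further: competitive chemoproteomic profiling in live THP-1 cells with an iodoacetamide desthiobiotin (IA-DTB) probe, comparing probe-labelled peptide intensities in compound-treated cells against DMSO-treated controls.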

Amino acid sequences for entries named in this document (tags omitted). A change or cut given only in a name is not applied to a line headed by its entry.
UniProt Q9HB19: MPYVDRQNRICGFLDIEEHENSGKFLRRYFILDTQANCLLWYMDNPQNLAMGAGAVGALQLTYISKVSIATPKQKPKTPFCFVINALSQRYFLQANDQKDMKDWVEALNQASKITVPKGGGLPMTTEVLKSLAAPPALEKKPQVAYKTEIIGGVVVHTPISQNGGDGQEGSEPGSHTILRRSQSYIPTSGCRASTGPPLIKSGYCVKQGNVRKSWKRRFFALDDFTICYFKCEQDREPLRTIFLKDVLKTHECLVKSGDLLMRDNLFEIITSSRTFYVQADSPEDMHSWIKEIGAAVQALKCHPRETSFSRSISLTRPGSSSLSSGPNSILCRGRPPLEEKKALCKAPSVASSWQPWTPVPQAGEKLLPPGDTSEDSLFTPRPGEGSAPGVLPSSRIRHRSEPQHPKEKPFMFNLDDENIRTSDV
UniProt Q13393: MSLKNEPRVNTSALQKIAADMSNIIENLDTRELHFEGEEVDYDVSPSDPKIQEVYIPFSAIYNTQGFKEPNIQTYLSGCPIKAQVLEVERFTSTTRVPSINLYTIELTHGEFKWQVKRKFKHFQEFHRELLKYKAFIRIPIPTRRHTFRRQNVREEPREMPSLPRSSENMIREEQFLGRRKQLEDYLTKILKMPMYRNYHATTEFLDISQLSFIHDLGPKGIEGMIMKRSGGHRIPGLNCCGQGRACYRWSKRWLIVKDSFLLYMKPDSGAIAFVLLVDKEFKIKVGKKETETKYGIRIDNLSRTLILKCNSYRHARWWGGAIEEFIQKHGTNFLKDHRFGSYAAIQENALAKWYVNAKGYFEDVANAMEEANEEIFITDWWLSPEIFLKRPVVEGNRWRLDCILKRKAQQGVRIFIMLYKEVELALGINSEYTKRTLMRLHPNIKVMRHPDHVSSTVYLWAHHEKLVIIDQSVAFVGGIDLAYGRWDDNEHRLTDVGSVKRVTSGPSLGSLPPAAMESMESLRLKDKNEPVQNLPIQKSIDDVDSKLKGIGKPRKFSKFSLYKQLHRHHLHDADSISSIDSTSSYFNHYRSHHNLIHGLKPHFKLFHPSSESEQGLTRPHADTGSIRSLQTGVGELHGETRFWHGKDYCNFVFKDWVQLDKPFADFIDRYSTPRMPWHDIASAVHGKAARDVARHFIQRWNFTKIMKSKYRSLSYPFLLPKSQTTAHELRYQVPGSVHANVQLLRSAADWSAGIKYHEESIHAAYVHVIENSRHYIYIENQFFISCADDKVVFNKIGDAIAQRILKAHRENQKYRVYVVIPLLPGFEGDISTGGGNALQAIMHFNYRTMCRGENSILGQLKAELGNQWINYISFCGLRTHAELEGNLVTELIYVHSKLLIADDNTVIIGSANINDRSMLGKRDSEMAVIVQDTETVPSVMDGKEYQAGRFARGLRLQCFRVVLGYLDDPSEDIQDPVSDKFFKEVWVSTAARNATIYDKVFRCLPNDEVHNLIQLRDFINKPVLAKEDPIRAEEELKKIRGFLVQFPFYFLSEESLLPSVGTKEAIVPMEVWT
UniProt O00562: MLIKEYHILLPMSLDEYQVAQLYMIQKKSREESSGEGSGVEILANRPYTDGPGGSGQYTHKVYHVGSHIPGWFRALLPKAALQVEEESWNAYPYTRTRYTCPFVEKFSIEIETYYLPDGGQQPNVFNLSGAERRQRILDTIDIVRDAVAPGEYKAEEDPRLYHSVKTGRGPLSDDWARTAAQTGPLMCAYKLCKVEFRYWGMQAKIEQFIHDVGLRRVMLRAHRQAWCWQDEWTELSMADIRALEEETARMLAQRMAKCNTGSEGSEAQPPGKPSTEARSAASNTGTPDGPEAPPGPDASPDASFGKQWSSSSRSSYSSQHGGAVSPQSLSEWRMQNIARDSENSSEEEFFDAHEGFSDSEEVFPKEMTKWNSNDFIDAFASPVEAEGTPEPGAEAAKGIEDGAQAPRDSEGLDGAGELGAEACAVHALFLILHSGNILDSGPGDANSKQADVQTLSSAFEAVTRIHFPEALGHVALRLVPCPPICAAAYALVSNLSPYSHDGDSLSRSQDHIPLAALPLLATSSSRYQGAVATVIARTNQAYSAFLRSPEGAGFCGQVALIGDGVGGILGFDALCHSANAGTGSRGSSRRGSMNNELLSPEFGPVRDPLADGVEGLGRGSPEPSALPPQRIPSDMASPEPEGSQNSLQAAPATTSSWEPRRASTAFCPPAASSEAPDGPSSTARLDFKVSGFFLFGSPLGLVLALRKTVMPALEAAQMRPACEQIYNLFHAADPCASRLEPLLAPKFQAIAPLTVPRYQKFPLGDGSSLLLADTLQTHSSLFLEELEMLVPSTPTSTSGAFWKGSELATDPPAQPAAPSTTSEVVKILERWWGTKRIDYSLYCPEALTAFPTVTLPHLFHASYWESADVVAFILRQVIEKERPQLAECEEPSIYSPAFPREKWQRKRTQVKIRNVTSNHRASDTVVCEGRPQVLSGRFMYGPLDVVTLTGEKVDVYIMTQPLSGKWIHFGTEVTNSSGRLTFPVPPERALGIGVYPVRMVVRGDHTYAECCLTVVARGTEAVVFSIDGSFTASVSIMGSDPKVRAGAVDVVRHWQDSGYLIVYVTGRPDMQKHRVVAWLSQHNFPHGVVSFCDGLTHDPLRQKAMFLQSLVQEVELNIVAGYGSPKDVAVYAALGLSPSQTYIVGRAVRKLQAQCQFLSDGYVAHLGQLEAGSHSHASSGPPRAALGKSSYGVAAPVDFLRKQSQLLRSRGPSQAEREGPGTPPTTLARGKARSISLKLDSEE
UniProt Q9GZP4: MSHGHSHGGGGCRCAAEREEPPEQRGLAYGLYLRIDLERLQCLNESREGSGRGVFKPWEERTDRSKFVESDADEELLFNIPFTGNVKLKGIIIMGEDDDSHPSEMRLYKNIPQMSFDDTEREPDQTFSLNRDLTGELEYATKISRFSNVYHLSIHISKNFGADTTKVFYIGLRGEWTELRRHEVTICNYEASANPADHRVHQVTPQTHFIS
UniProt Q16512: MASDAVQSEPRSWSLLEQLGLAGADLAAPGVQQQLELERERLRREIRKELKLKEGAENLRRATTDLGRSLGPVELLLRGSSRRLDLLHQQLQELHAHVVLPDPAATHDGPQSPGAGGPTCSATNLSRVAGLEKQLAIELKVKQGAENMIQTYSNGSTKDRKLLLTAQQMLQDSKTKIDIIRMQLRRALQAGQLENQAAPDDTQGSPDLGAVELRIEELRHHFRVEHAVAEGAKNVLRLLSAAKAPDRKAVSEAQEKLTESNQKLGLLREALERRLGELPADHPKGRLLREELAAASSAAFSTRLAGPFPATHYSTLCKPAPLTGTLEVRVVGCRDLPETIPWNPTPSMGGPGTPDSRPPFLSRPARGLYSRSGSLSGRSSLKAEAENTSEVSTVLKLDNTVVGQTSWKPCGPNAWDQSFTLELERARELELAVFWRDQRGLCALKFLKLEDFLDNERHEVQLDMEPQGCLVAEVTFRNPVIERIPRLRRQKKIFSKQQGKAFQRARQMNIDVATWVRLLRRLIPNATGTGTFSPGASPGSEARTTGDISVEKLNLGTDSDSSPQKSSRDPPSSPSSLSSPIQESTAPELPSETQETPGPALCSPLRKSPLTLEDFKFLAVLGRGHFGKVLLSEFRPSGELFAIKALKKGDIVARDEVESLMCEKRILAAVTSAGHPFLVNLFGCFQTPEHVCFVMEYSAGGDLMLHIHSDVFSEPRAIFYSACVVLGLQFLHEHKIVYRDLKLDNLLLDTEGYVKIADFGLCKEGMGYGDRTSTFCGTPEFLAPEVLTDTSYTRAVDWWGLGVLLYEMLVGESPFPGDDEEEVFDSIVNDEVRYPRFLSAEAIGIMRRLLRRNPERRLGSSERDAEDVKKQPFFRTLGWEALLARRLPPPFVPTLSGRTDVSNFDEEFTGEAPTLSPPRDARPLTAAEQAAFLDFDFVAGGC
UniProt P54278: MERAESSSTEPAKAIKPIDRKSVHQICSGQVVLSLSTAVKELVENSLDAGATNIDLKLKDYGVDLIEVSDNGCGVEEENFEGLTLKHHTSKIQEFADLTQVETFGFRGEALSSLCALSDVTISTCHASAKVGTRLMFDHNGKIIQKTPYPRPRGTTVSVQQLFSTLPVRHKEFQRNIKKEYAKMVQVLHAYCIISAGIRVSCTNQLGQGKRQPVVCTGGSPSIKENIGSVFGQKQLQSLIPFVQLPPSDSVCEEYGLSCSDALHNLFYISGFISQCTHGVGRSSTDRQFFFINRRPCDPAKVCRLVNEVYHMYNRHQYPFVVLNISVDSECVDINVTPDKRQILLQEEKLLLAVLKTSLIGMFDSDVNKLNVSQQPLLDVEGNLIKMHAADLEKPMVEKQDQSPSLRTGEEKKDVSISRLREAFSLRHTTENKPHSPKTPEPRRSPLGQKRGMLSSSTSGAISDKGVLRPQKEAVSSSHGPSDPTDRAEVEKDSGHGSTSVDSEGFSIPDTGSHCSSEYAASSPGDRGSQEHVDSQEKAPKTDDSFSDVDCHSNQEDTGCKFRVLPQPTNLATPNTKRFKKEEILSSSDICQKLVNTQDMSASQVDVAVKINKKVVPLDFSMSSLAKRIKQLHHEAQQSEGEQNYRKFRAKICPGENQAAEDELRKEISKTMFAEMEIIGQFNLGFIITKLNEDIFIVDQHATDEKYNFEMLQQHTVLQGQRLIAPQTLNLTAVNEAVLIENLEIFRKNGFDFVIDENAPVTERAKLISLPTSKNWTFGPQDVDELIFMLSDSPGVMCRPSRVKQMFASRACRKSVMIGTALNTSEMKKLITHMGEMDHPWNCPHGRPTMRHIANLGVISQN
UniProt Q8IV08: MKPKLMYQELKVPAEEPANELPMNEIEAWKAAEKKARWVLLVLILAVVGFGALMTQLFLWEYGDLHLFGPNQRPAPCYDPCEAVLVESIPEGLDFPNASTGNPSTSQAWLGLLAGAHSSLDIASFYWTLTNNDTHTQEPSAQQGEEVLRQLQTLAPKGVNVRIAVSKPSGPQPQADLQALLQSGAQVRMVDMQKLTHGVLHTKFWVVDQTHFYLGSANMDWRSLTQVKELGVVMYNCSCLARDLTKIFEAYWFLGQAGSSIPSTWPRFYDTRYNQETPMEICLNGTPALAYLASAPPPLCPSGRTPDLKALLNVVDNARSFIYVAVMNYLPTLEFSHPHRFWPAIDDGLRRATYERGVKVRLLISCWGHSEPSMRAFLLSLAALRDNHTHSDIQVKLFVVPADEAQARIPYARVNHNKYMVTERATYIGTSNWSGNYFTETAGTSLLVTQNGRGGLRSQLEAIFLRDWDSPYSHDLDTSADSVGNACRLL
UniProt P29590: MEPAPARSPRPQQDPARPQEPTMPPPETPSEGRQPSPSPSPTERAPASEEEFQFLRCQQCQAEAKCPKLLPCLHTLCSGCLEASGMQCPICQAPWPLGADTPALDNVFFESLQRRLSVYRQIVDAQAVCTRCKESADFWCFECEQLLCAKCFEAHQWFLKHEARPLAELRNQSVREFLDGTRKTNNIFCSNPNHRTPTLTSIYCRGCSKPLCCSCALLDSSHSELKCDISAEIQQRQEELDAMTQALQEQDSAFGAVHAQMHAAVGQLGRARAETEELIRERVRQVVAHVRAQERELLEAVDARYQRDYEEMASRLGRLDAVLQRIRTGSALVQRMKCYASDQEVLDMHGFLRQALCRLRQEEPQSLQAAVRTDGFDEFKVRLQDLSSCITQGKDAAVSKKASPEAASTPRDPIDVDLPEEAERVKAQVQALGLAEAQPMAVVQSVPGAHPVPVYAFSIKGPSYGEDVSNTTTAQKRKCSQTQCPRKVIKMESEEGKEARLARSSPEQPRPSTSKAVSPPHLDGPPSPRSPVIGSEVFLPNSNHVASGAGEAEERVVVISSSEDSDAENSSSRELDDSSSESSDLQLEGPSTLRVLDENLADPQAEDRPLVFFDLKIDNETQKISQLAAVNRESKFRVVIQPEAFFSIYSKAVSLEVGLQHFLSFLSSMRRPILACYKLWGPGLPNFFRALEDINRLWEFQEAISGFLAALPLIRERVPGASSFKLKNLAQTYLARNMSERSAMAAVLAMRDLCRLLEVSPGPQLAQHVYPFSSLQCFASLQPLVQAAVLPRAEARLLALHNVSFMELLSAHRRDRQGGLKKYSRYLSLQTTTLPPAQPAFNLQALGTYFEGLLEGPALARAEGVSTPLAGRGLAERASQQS
UniProt Q13526, whole entry, looked up: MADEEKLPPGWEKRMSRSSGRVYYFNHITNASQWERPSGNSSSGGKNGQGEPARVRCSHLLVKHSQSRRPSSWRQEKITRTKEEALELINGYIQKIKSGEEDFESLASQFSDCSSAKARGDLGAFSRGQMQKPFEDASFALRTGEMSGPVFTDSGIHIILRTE

Target | probe-labelled cysteine peptide fold change (10 µM) | probe-labelled cysteine peptide fold change (50 µM)
PKM_P14618_474_GIFPVLCK (UniProt P14618) | -0.00513 | 0.0371
PLXNB2_O15031_351_DIFYKPFHGDIQCGGHAPGSSK (UniProt O15031) | -0.0778 | -0.153
PLEKHA2_Q9HB19_11_ICGFLDIEEHENSGK (UniProt Q9HB19) | 0.099 | 0.144
PLD1_Q13393_876_AELGNQWINYISFCGLR (UniProt Q13393) | -0.0734 | 0.0204
PITPNM1_O00562_889_ERPQLAECEEPSIYSPAFPR (UniProt O00562) | 0.225 | 0.124
PITHD1_Q9GZP4_187_HEVTICNYEASANPADHR (UniProt Q9GZP4) | 0.323 | -0.301
PIK3R4_Q99570_1097_ILDQKEDGCVVDMHHFNSGAQSVLAYATVNGSLVGWDLR (UniProt Q99570) | 0.0468 | -0.0347
PLCG2_P16885_791_RSDELSFCR (UniProt P16885) | -0.131 | 0.0263
PIK3R4_Q99570_955_EQCNAER (UniProt Q99570) | -0.0631 | -0.105
PKN1_Q16512_442_GLCALK (UniProt Q16512) | -0.0211 | 0.113
PMS2_P54278_591_EEILSSSDICQK (UniProt P54278) | 0.17 | 0.0372
PMS2_P54278_653_ICPGENQAAEDELRK (UniProt P54278) | 0.0335 | -0.00631
PLD3_Q8IV08_487_DWDSPYSHDLDTSADSVGNACR (UniProt Q8IV08) | -0.00483 | -0.0461
PLCG1_P19174_247_AGERPELCR (UniProt P19174) | -0.192 | -0.254
PML_P29590_479_CSQTQCPR (UniProt P29590) | -0.201 | -0.093
PIK3C3_Q8NEB9_336_CVNWDLPQEAK (UniProt Q8NEB9) | 0.0288 | -0.089
PKN1_Q16512_317_LAGPFPATHYSTLCK (UniProt Q16512) | 0.165 | -0.214
PLAA_Q9Y263_143_CMMTLQGHTAAVWAVK (UniProt Q9Y263) | 0.0286 | 0.0632
PLEKHM2_Q8IWE5_28_KLQSYFAACEDEIPAIR (UniProt Q8IWE5) | -0.0431 | -0.0917
PIN1_Q13526_113_SGEEDFESLASQFSDCSSAK (UniProt Q13526) | -0.166 | -0.217

Fetched one by one from the list above (two):
Target | probe-labelled cysteine peptide fold change (10 µM) | probe-labelled cysteine peptide fold change (50 µM)
PIN1_Q13526_113_SGEEDFESLASQFSDCSSAK (UniProt Q13526) | -0.166 | -0.217
PMS2_P54278_653_ICPGENQAAEDELRK (UniProt P54278) | 0.0335 | -0.00631

Source: the supplement of paper PMC12067093, “Discovery and optimisation of a covalent ligand for TRIM25 and its application to targeted protein ubiquitination” (Chemical Science, 2025)
